Library screen at single concentrations

Measurements from “University of Dundee, Small-Polar-MMV Screening Library” (2021), ChEMBL document CHEMBL3988442.

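Growth of Mycobacterium tuberculosis over 3 days (7H9 medium with glucose and tyloxapol); the read-out is not stated. Compounds at 50 µM. Direction is inferred from retests: higher values go with more growth inhibition. Size under these conditions: about 69,000 compounds, about 760 of them at 50% or above in at least one test.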

Values are the deposited “Percent Effect”, in %.
The controls that fix the scale are not given in the record; negative values are as filed.
Compounds were drawn at random from those tested, without regard to their results.
Two or more numbers in one place are separate tests of the same structure; such repeats can differ widely.

SMILES: CCc1nc(NC2CCCN(C(=O)c3cccs3)C2)c2cnn(C)c2n1 (centres unmarked)
effect: 13.26

SMILES: Cc1csc(C2CCCCN2C(=O)c2cnn3ccc(C)nc23)n1 (centres unmarked)
effect: 3.814

SMILES: CCN(CC)S(=O)(=O)c1ccc2c(c1)N(Cc1ccccn1)C(=O)CS2
effect: 3.428

SMILES: COc1ccccc1N1CCN(C(=O)NC(C)c2nncn2C)CC1 (centres unmarked)
effect: -25.5

SMILES: CCN(Cc1nc2c(cnn2C)c(=O)[nH]1)c1cccc(C)c1
effect: 33.54

SMILES: CCc1cc(C(=O)N[C@@H]2CC[C@@H](N3CCOCC3)[C@@H]2O)no1
effect: 5.466

SMILES: COCCN(C)CCN1CC2(CCN(C(=O)C3CCOC3)CC2)OC1=O (centres unmarked)
effect: -26.03

SMILES: Cc1cc(C)c(CNC(=O)NCc2ccc(F)c(C)c2)c(=O)[nH]1
effect: -20.05 and 2.585

SMILES: CC(=O)NC(C)CC(=O)NCc1cccnc1Oc1ccccc1C (centres unmarked)
effect: -8.388 and -7.171

SMILES: CCc1cnc(CN(C)C(=O)NC2CCN(c3ccccc3)C2)s1 (centres unmarked)
effect: 27.34

SMILES: CN(Cc1ccccc1)C(=O)CN1CCCC1c1cnn(C)c1 (centres unmarked)
effect: -0.282

SMILES: CC(C)c1noc(C(C)N2CCN(Cc3cccc(C#N)c3)CC2)n1 (centres unmarked)
effect: 12.53

SMILES: O=C(O)C(F)(F)F.O=C([C@H]1CCCO1)N1CC[C@H](O)[C@@H]1Cc1ccncc1
effect: 17.04

SMILES: CCCc1cc(C(=O)NC(COC)c2ccnn2C)no1 (centres unmarked)
effect: -19.17

SMILES: COc1c(C)cnc(CN2CCC(N(C)C(=O)C3CC3)CC2)c1C
effect: -16.22

SMILES: Cc1nc(-c2ccncc2)nc(N(C)CCc2ccncc2)c1C
effect: 10.45 and 9.442

SMILES: Cc1nc(C(F)(F)F)nc(N2CCC(O)(C(=O)O)CC2)c1C
effect: 14.61

SMILES: CC(C)CC(=O)N1CC(=O)c2sc(Nc3ccc(C#N)cc3)nc2C1
effect: 12.46

SMILES: COc1cccc(-c2nccc(C3CCCN3C)n2)c1 (centres unmarked)
effect: 39.35

SMILES: COc1ccc(CN2Cc3[nH]nc(C(=O)N(C)C)c3C2)cc1
effect: -16.57

SMILES: Cc1n[nH]c(C)c1-c1nccnc1CC1CCCN(C)C1 (centres unmarked)
effect: -4.299

SMILES: Cn1cc(CN2CCCC(n3c(=O)oc4ccccc43)C2)cn1 (centres unmarked)
effect: 3.997

SMILES: O=C(c1cn(-c2ccccc2)nn1)N1CCCC(n2cccn2)C1 (centres unmarked)
effect: -14.78

SMILES: CC(C)CN1CCC2(CC1)C(=O)Nc1ccc(C(=O)NC(C)C)cc12.O=C(O)C(F)(F)F
effect: 12.83

SMILES: [H][C@@]12CN(C3CCSCC3)C[C@]1([H])N(CCc1ccc(OC)cc1)C(=O)O2
effect: 5.12

SMILES: Cn1cc(CCNC(=O)c2cc3ccccc3nc2N2CCCC2)cn1
effect: 17.8

SMILES: COC(=O)CCC(=O)N(C/C=C/c1ccccc1)CCO
effect: -5.977 and -41.8

SMILES: Cc1ccc(C(=O)Nc2nnc(C(C)C)s2)c(-n2cnnn2)c1C
effect: 15.12

SMILES: Cc1ccoc1C(=O)N1CCC(n2cc(-c3ccsc3)nn2)CC1
effect: 48.33

SMILES: O=C(NC[C@H]1OC[C@@H](NC2CCOCC2)[C@@H]1O)C1CCCC1
effect: -18.41 and -3.524

SMILES: CCn1cc(C(=O)NCCc2nc(-c3ccc(C)cc3)n[nH]2)c(C)n1
effect: 11.25

SMILES: CC(C)NC(=O)CC1CC2(CCN(S(C)(=O)=O)CC2)c2ccccc21 (centres unmarked)
effect: 9.133

SMILES: COc1ccc(C(O)CNC(=O)NCc2nc(C)cs2)cc1 (centres unmarked)
effect: -17.59 and -5.876

SMILES: Cc1nc(C2CCCN2C(=O)c2ccccc2)ncc1C(N)=O (centres unmarked)
effect: -7.575

SMILES: CN(Cc1ccsc1)C(=O)Nc1ccc(N2CCCC2)nc1
effect: -26.85

SMILES: Cc1ncc(CNC(=O)NCC(C)Oc2ccccc2F)s1 (centres unmarked)
effect: -13.1

SMILES: Cc1ccc2c(ccn2CCC(=O)N2CCC(C(N)=O)CC2)c1
effect: -0.1871

SMILES: COc1ccc(OCCN(C)S(=O)(=O)c2cnn(C)c2)cc1
effect: -2.467

SMILES: CC(O)CN1CCN(C(=O)c2cnn(-c3ccccc3F)c2)CC1 (centres unmarked)
effect: 8.764

SMILES: CN(C)c1ncccc1CNC(=O)N1CCCC1c1cccs1 (centres unmarked)
effect: 22.8

SMILES: [H][C@]12CN(C(=O)C3CC3)CCN1C(=O)N(CCOC)C2
effect: -18.99 and -0.5075

SMILES: Nc1cc(C(=O)NCC2CCN(Cc3ccncc3F)C2)ccn1 (centres unmarked)
effect: 16.95

SMILES: Cc1cccc2nc(CSCc3nnnn3C(C)C)cn12
effect: 10.17

SMILES: CC(C)Nc1cccc(CC2CCN(C)C2)n1.O=CO (centres unmarked)
effect: 1.736

SMILES: CC(NC(=O)N1CCN(c2ccccc2)CC1)c1nncn1C (centres unmarked)
effect: -17.65

SMILES: c1ccc(-c2nc(CN3CCCC(Cn4cncn4)C3)no2)cc1 (centres unmarked)
effect: -10.98

SMILES: CC(=O)N1CCC(NC2(Cc3cc(CN(C)C)on3)COC2)CC1
effect: -25.6 and -11.42

SMILES: COc1ccc(CNC(=O)NC(C)(CO)C2CC2)c(C(F)(F)F)c1 (centres unmarked)
effect: 15.12

SMILES: Cc1nc(CN2CCc3cc(C(=O)O)c(N(C)C)nc3CC2)cs1.O=C(O)C(F)(F)F.O=C(O)C(F)(F)F
effect: -4.761

Repeated from the top, 4 entries:

| SMILES | effect |
|---|---|
| `CCc1nc(NC2CCCN(C(=O)c3cccs3)C2)c2cnn(C)c2n1` (centres unmarked) | 13.26 |
| `Cc1csc(C2CCCCN2C(=O)c2cnn3ccc(C)nc23)n1` (centres unmarked) | 3.814 |
| `CCN(CC)S(=O)(=O)c1ccc2c(c1)N(Cc1ccccn1)C(=O)CS2` | 3.428 |
| `COc1ccccc1N1CCN(C(=O)NC(C)c2nncn2C)CC1` (centres unmarked) | -25.5 |